This is one part of the list.
How the values were obtained:
Test in all cases: log2 fold change, soluble protein after heating vs DMSO (PISA); higher = thermal stabilisation; K562 cells, 10 uM, 30 min; active = over 0.2 and 3.5 SD of the protein, either way, in both replicates (recomputed)
[1] = compound: CC[C@@H]1C(=O)N(C)c2cnc(Nc3ccc(C(=O)NC4CCN(C)CC4)cc3OC)nc2N1C1CCCC1
Outline: (§1)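 K562 cells at 2×10^6 cells/mL were treated with 10 μM compound for 30 min. Aliquots were heated for 3 min across 48°C-58°C, pooled, and extracted in PBS with 0.5% NP-40 at 4°C; soluble protein was the supernatant after 21,000xg for 90 min. Soluble protein was quantified by TMTpro 16plex LC-MS/MS with channel sums equalised, and reported as log2 fold change in thermal stability against DMSO controls, with values from duplicates.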

Chains of the proteins cited; added tags and fusions are not shown. Lines headed by an entry give the natural chain unless they say otherwise; changes in a name come on top.
UniProt Q12874: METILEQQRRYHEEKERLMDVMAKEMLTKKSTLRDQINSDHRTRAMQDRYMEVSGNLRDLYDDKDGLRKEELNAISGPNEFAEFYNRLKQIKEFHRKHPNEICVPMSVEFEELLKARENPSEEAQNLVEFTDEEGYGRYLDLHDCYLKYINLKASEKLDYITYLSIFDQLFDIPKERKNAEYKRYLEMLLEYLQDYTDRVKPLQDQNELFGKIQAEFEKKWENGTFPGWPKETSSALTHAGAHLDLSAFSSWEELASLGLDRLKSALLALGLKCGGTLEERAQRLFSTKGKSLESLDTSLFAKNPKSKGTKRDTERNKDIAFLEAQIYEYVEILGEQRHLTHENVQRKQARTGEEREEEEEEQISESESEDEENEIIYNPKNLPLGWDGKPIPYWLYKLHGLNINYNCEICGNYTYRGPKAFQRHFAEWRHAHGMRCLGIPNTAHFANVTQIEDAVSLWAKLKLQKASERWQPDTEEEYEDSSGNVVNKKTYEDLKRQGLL
UniProt P63208, whole entry, looked up: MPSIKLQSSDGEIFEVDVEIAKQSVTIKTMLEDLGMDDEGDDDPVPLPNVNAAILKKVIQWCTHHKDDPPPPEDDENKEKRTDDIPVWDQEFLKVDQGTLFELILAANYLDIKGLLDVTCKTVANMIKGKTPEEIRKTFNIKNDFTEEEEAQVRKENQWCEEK
UniProt A0MZ66, whole entry, looked up: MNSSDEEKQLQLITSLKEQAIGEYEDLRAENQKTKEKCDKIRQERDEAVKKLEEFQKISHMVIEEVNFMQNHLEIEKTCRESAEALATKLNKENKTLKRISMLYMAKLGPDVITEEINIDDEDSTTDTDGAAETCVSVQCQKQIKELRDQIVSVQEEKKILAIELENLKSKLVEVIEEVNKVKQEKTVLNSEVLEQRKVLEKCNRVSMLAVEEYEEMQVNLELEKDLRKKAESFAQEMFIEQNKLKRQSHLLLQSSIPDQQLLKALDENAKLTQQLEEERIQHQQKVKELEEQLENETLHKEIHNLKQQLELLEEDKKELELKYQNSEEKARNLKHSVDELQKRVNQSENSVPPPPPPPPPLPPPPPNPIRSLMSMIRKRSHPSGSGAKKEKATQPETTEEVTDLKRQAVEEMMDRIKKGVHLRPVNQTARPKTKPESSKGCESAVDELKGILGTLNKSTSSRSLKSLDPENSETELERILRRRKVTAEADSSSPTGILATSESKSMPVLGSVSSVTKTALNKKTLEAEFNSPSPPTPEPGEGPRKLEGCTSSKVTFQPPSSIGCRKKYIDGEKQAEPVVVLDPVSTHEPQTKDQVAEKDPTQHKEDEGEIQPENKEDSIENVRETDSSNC
UniProt P62341, whole entry, looked up: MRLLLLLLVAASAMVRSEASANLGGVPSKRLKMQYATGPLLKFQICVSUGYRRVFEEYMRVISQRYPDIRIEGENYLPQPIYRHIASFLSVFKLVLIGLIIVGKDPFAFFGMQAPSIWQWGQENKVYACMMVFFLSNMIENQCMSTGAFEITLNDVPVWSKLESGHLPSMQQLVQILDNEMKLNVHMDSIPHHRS
UniProt Q99719: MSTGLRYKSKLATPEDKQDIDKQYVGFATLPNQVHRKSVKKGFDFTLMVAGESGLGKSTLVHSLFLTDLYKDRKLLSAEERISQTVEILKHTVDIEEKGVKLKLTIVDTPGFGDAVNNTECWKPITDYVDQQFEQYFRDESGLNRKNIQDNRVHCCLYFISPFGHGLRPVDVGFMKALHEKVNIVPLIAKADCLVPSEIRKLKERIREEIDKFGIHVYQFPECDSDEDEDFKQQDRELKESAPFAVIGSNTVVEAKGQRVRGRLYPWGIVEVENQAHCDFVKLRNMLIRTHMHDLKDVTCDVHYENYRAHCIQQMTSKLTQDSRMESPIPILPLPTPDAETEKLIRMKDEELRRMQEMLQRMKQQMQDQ
UniProt Q96FS4: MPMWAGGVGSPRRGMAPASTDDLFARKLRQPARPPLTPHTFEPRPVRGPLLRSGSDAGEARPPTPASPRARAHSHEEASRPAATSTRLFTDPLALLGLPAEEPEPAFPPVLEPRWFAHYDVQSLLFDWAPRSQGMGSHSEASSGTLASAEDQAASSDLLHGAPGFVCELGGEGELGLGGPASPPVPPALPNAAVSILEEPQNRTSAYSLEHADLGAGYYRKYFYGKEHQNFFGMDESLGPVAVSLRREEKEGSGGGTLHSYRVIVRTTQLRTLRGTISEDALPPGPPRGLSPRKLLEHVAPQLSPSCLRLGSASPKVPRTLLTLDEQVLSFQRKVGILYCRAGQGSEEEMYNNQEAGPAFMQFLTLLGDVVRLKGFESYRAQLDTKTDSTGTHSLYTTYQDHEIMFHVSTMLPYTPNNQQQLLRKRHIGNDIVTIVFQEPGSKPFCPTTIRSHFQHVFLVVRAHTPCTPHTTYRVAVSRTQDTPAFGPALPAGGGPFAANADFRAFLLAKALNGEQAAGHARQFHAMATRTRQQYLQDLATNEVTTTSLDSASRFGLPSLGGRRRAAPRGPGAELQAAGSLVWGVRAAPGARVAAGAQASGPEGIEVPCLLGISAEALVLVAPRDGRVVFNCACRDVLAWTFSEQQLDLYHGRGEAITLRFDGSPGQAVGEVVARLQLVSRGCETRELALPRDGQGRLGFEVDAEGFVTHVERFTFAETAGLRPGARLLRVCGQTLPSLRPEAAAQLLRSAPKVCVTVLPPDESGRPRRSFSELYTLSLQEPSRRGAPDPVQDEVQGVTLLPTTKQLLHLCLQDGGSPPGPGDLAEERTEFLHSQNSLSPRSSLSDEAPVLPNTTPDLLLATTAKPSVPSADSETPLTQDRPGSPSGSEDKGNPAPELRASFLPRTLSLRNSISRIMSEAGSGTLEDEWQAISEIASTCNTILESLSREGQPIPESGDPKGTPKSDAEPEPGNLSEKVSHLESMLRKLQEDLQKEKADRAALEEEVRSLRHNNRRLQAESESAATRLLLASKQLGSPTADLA
UniProt Q8IXJ6: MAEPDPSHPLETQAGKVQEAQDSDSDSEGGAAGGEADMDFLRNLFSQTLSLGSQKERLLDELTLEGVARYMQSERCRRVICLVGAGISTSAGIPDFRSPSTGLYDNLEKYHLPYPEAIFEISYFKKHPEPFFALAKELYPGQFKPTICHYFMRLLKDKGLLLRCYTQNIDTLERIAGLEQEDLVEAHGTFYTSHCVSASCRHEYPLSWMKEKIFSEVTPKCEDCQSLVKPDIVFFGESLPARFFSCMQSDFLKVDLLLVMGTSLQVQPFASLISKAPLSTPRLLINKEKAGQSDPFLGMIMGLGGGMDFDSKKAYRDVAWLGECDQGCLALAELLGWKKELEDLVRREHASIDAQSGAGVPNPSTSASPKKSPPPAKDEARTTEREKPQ
UniProt O60613, whole entry, looked up: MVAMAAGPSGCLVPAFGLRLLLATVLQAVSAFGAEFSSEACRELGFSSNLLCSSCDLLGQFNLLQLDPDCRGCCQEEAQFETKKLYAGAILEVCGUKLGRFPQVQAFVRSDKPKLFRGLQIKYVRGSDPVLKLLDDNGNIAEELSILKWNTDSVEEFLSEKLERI
UniProt Q96EE3: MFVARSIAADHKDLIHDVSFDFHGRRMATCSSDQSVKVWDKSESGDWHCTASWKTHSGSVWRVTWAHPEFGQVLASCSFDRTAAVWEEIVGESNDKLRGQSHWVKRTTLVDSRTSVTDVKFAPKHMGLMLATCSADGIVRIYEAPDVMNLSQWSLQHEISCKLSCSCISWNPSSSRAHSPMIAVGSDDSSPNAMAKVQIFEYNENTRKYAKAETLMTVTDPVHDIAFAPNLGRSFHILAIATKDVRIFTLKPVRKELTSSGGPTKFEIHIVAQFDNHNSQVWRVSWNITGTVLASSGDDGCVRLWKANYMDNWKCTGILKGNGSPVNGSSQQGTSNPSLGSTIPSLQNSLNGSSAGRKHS
UniProt P55822: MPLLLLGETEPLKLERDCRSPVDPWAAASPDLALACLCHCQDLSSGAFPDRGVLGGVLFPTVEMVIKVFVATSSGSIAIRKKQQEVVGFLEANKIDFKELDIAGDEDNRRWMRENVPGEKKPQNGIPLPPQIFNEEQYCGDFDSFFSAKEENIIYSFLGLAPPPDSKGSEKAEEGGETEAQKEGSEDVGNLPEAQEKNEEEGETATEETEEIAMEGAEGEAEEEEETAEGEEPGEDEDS
UniProt Q9Y3L3: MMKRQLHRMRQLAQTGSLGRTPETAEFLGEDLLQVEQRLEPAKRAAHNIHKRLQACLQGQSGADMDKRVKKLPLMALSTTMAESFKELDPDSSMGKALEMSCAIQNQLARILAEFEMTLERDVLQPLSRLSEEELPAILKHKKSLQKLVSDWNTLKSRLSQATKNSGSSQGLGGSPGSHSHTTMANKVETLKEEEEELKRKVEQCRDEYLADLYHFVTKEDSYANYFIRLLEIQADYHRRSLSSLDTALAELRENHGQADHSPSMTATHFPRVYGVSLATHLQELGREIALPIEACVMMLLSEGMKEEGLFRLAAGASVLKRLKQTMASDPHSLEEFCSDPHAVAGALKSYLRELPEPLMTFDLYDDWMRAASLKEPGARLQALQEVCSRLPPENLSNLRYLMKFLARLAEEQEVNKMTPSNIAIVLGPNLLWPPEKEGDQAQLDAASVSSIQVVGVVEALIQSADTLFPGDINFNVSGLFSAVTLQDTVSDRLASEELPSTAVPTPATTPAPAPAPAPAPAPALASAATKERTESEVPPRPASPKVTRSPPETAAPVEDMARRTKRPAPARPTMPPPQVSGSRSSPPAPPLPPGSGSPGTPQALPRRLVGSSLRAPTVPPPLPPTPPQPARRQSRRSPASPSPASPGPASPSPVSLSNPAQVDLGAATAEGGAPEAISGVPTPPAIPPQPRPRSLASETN
UniProt Q13796: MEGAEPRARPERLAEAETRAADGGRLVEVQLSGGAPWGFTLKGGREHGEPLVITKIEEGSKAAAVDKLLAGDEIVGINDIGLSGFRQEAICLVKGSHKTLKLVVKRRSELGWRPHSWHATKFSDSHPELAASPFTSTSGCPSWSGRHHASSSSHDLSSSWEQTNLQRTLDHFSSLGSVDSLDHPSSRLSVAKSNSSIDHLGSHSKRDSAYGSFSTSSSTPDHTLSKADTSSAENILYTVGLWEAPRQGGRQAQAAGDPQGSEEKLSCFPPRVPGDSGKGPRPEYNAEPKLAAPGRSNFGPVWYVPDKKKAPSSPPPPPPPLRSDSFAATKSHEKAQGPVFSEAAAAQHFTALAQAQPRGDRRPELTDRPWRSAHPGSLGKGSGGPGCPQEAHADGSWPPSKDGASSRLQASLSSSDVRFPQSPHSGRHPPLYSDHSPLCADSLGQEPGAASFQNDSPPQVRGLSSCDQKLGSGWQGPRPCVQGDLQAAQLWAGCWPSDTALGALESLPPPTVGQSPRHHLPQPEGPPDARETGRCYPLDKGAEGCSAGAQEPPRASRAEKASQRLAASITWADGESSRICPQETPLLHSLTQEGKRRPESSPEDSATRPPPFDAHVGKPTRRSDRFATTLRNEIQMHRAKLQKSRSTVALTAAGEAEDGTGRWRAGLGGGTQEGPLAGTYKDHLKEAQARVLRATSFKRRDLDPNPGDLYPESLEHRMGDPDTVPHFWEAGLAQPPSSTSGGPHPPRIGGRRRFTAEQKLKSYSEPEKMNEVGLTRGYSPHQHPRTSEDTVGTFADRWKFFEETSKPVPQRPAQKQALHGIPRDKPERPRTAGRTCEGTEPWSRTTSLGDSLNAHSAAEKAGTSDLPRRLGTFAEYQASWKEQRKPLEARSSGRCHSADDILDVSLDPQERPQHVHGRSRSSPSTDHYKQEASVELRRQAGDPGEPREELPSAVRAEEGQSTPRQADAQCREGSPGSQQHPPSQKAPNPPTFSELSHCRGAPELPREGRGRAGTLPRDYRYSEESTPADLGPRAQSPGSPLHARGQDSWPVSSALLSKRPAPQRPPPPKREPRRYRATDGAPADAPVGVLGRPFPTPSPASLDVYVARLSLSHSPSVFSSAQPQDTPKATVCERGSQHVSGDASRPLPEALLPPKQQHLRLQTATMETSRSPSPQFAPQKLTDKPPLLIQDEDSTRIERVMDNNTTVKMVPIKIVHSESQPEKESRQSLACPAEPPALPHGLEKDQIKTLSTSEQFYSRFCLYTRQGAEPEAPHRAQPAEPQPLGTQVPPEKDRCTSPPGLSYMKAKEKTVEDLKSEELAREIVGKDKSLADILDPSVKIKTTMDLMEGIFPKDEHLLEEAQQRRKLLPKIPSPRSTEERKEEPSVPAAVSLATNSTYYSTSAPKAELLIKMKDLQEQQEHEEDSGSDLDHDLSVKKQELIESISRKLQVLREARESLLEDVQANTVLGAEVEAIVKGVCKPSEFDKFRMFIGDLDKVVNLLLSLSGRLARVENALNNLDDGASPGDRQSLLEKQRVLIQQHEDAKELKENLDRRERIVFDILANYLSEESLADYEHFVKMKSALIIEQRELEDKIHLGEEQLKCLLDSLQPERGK

volasertib = compound: CC[C@@H]1C(=O)N(C)c2cnc(Nc3ccc(C(=O)N[C@H]4CC[C@H](N5CCN(CC6CC6)CC5)CC4)cc3OC)nc2N1C(C)C [volasertib]
Outline: as §1

[2] = compound: CC[C@H](C)N1C=C(C2=C(C=C(C=C21)C3=CN=C(C=C3)N4CCNCC4)C(=O)NCC5=C(C=C(NC5=O)C)C)C
Outline: as §1

epoxomicin = compound: CC[C@H](C)[C@@H](C(=O)N[C@@H]([C@@H](C)O)C(=O)N[C@@H](CC(C)C)C(=O)[C@]1(CO1)C)NC(=O)[C@H]([C@@H](C)CC)N(C)C(=O)C [epoxomicin]
Outline: as §1

[3] = compound: CCn1c(C(=O)N(C2CC2)C2CC2)cc2c3c(ncn3C)c(Nc3cc(C)n(C)n3)nc21
Outline: as §1

[4] = compound: CCn1cc(-c2ccnc3[nH]c(-c4cccc(CN(C)C)c4)cc23)c(-c2ccc(NC(=O)N(C)C)cc2)n1
Outline: as §1

[5] = compound: CN(C)CC(=O)Nc1ccc2[nH]c(=O)c3ccccc3c2c1
Outline: as §1

rosiglitazone = compound: CN(CCOC1=CC=C(C=C1)C[C@H]2C(=O)NC(=O)S2)C3=CC=CC=N3 (racemic) [rosiglitazone]
Outline: as §1

[6] = compound: CN1C2=C(C3=C1C(=O)N(N=C3)CC4=CC(=CC=C4)N)SC(=C2)S(=O)C
Outline: as §1

[7] = compound: CN1CCC(CNc2ccc3ncc(-c4cccc(OC(F)(F)F)c4)n3n2)CC1
Outline: as §1

saracatinib = compound: CN1CCN(CCOc2cc(OC3CCOCC3)c3c(Nc4c(Cl)ccc5c4OCO5)ncnc3c2)CC1 [saracatinib]
Outline: as §1

sotrastaurin = compound: CN1CCN(c2nc(C3=C(c4c[nH]c5ccccc45)C(=O)NC3=O)c3ccccc3n2)CC1 [sotrastaurin]
Outline: as §1

alvocidib = compound: CN1CC[C@H](c2c(O)cc(O)c3c(=O)cc(-c4ccccc4Cl)oc23)[C@H](O)C1 [alvocidib]
Outline: as §1

Tubastatin A = compound: CN1CCc2c(c3ccccc3n2Cc2ccc(C(=O)NO)cc2)C1 [Tubastatin A]
Outline: as §1

[8] = compound: CNC(=O)C1=CC=CC=C1NC2=NC(=NC=C2Cl)NC3=C(C=C(C=C3)N4CCOCC4)OC
Outline: as §1

defactinib = compound: CNC(=O)c1ccc(Nc2ncc(C(F)(F)F)c(NCc3nccnc3N(C)S(C)(=O)=O)n2)cc1 [defactinib]
Outline: as §1

rucaparib = compound: CNCc1ccc(-c2[nH]c3cc(F)cc4c3c2CCNC4=O)cc1 [rucaparib]
Outline: as §1

[9] = compound: CNc1nc(-c2ccc3c(N)n[nH]c3c2)cc(N2C[C@@H](C(=O)NC3CCCCC3)CC[C@H]2C)n1
Outline: as §1

encorafenib = compound: COC(=O)N[C@@H](C)CNc1nccc(-c2cn(C(C)C)nc2-c2cc(Cl)cc(NS(C)(=O)=O)c2F)n1 [encorafenib]
Outline: as §1

[10] = compound: COC(=O)[C@H](CCSC)NC(=O)C1=C(C=C(C=C1)NC[C@H](CS)N)C2=CC=CC=C2
Outline: as §1

| Target | log2 fold change [1] | log2 fold change (volasertib) | log2 fold change [2] | log2 fold change (epoxomicin) | log2 fold change [3] | log2 fold change [4] | log2 fold change [5] | log2 fold change (rosiglitazone) | log2 fold change [6] | log2 fold change [7] | log2 fold change (saracatinib) | log2 fold change (sotrastaurin) | log2 fold change (alvocidib) | log2 fold change (Tubastatin A) | log2 fold change [8] | log2 fold change (defactinib) | log2 fold change (rucaparib) | log2 fold change [9] | log2 fold change (encorafenib) | log2 fold change [10] |
| --- | --- | --- | --- | --- | --- | --- | --- | --- | --- | --- | --- | --- | --- | --- | --- | --- | --- | --- | --- | --- |
| SF3A3 (UniProt Q12874) | inactive: 0.01 | inactive: -0.112 | inactive: 0.06 | inactive: 0.033 | inactive: -0.07 | inactive: -0.002 | inactive: 0.046 | inactive: 0.024 | inactive: 0.071 | inactive: -0.022 | inactive: -0.186 | inactive: -0.126 | inactive: -0.028 | inactive: 0.08 | inactive: 0.062 | inactive: 0.006 | inactive: 0.078 | inactive: -0.027 | inactive: 0.103 | inactive: -0.011 |
| SHOC2 (UniProt Q9UQ13) | inactive: 0.088 | inactive: -0.02 | inactive: 0.035 | inactive: 0.004 | inactive: -0.014 | inactive: -0.107 | inactive: 0.045 | inactive: 0.009 | inactive: 0.003 | inactive: -0.038 | inactive: -0.03 | inactive: 0.083 | inactive: -0.102 | inactive: 0.034 | inactive: 0.003 | inactive: -0.039 | inactive: 0.05 | inactive: 0.092 | inactive: -0.035 | inactive: -0.049 |
| SERPINB6, A0A087X1N8 | inactive: -0.012 | inactive: 0.048 | inactive: 0.007 | inactive: 0.042 | inactive: -0.015 | inactive: -0.016 | inactive: -0.027 | inactive: -0.002 | inactive: -0.05 | inactive: -0.009 | inactive: 0.073 | inactive: -0.012 | inactive: -0.01 | inactive: -0.055 | inactive: 0.023 | inactive: 0 | inactive: -0.026 | inactive: 0.007 | inactive: -0.015 | inactive: 0.053 |
| SKP1 (UniProt P63208) | inactive: -0.012 | inactive: -0.02 | inactive: -0.027 | inactive: 0.034 | – | inactive: -0.035 | inactive: -0.019 | – | inactive: -0.126 | inactive: 0.244 | inactive: 0.157 | inactive: -0.023 | – | inactive: 0.002 | inactive: 0.165 | inactive: 0.066 | inactive: -0.051 | inactive: 0.028 | inactive: -0.005 | inactive: 0.072 |
| SHTN1 isoform 3 (UniProt A0MZ66) | inactive: 0.062 | inactive: -0.133 | inactive: -0.01 | inactive: -0.025 | inactive: -0.076 | inactive: 0.009 | inactive: -0.015 | inactive: 0.092 | inactive: 0.025 | inactive: -0.106 | inactive: -0.037 | inactive: -0.073 | inactive: -0.028 | inactive: 0.039 | inactive: 0.106 | inactive: -0.015 | inactive: -0.013 | inactive: -0.009 | inactive: 0.057 | inactive: -0.008 |
| SELENOT (UniProt P62341) | inactive: 0.042 | inactive: 0.122 | inactive: -0.017 | inactive: -0.051 | inactive: 0.033 | inactive: 0.002 | inactive: -0.01 | inactive: 0.004 | inactive: -0.037 | inactive: 0.101 | inactive: 0.107 | inactive: -0.041 | – | inactive: 0.041 | inactive: 0.007 | inactive: -0.092 | inactive: 0.023 | inactive: 0.02 | inactive: -0.016 | inactive: 0.002 |
| SEPTIN5 (UniProt Q99719) | inactive: 0.03 | inactive: 0.047 | inactive: -0.003 | inactive: -0.025 | – | inactive: -0.052 | inactive: -0.019 | – | inactive: -0.09 | inactive: -0.009 | inactive: 0.051 | inactive: 0.001 | – | inactive: -0.035 | inactive: -0.022 | inactive: 0.008 | inactive: -0.036 | inactive: 0.003 | inactive: -0.007 | inactive: -0.006 |
| SIPA1 (UniProt Q96FS4) | inactive: -0.014 | inactive: -0.081 | inactive: -0.078 | inactive: -0.018 | inactive: -0.125 | inactive: -0.086 | inactive: 0.045 | inactive: 0.017 | inactive: -0.002 | inactive: -0.02 | inactive: -0.005 | inactive: -0.029 | inactive: -0.046 | inactive: 0 | inactive: -0.031 | inactive: 0.008 | inactive: 0.026 | inactive: 0.045 | inactive: -0.01 | inactive: 0.002 |
| SIRT2 (UniProt Q8IXJ6) | inactive: 0.077 | active: 0.624 | inactive: 0.043 | inactive: -0.015 | – | inactive: -0.038 | inactive: 0.009 | – | inactive: -0.041 | inactive: -0.025 | inactive: 0.031 | inactive: 0.136 | – | inactive: -0.015 | inactive: -0.038 | inactive: -0.015 | inactive: -0.033 | inactive: 0.181 | inactive: 0.014 | inactive: 0.025 |
| SERPINI1 (UniProt Q99574) | inactive: 0.062 | inactive: 0.006 | inactive: 0.012 | inactive: 0.01 | inactive: -0.029 | inactive: -0.109 | inactive: -0.018 | inactive: 0.024 | inactive: 0.014 | inactive: 0.113 | inactive: 0.174 | inactive: 0.006 | inactive: 0.065 | inactive: -0.024 | inactive: 0.016 | inactive: -0.036 | inactive: -0.126 | inactive: -0.055 | inactive: 0.067 | inactive: 0.024 |
| SFN (UniProt P31947) | inactive: 0.164 | inactive: -0.012 | inactive: 0.003 | inactive: -0.006 | inactive: 0.026 | inactive: 0.012 | inactive: -0.019 | inactive: 0.03 | inactive: -0.039 | inactive: -0.051 | inactive: -0.074 | inactive: 0.044 | inactive: -0.017 | inactive: -0.034 | inactive: 0.005 | inactive: -0.016 | inactive: -0.085 | inactive: 0.024 | inactive: -0.054 | inactive: 0.001 |
| SF3A2 (UniProt Q15428) | inactive: 0.099 | inactive: -0.137 | inactive: 0.017 | inactive: -0.053 | inactive: -0.147 | inactive: -0.085 | inactive: 0.02 | inactive: 0.045 | inactive: 0.006 | inactive: 0.054 | inactive: -0.014 | inactive: 0.049 | inactive: -0.028 | inactive: -0.028 | inactive: 0.06 | inactive: 0.001 | inactive: 0.081 | inactive: -0.03 | inactive: 0.03 | inactive: -0.023 |
| SELENOF (UniProt O60613) | inactive: 0.012 | inactive: -0.047 | inactive: -0.002 | inactive: 0 | inactive: 0.007 | inactive: -0.033 | inactive: -0.008 | inactive: -0.025 | inactive: 0 | inactive: 0.029 | inactive: -0.075 | inactive: -0.012 | inactive: -0.013 | inactive: -0.02 | inactive: 0.001 | inactive: -0.007 | inactive: -0.031 | inactive: -0.061 | inactive: 0.051 | inactive: -0.047 |
| SEH1L isoform 1 (UniProt Q96EE3) | inactive: -0.044 | active: 0.466 | inactive: -0.019 | inactive: -0.057 | – | inactive: -0.041 | inactive: -0.013 | – | inactive: -0.054 | inactive: 0.027 | inactive: 0.009 | inactive: -0.022 | – | inactive: -0.015 | inactive: -0.029 | inactive: -0.012 | inactive: -0.016 | inactive: -0.053 | inactive: 0.025 | inactive: -0.007 |
| SH3BGR (UniProt P55822) | inactive: -0.102 | inactive: -0.068 | inactive: 0.167 | inactive: -0.369 | inactive: -0.014 | inactive: -0.05 | – | inactive: 0.118 | inactive: 0.038 | inactive: 0.142 | inactive: -0.076 | – | inactive: -0.033 | – | inactive: 0.129 | – | inactive: 0.076 | inactive: -0.028 | inactive: -0.01 | – |
| SH3BP1 (UniProt Q9Y3L3) | inactive: -0.084 | inactive: -0.142 | inactive: 0.022 | inactive: 0.04 | inactive: -0.018 | inactive: 0.018 | inactive: -0.003 | inactive: 0.029 | inactive: 0.011 | inactive: -0.06 | inactive: 0.028 | inactive: 0.018 | inactive: -0.036 | inactive: -0.013 | inactive: -0.029 | inactive: -0.002 | inactive: -0.004 | inactive: 0.004 | inactive: 0.004 | inactive: 0.009 |
| SHROOM2 (UniProt Q13796) | inactive: 0.027 | inactive: 0.068 | inactive: -0.243 | inactive: -0.136 | – | inactive: -0.072 | inactive: -0.021 | – | inactive: -0.103 | inactive: -0.094 | inactive: -0.118 | inactive: 0.128 | – | inactive: 0.283 | inactive: -0.29 | inactive: 0.059 | inactive: -0.049 | inactive: 0.08 | inactive: -0.136 | inactive: 0.1 |

2 entries from above, comma-delimited.
Target,log2 fold change [1],log2 fold change (volasertib),log2 fold change [2],log2 fold change (epoxomicin),log2 fold change [3],log2 fold change [4],log2 fold change [5],log2 fold change (rosiglitazone),log2 fold change [6],log2 fold change [7],log2 fold change (saracatinib),log2 fold change (sotrastaurin),log2 fold change (alvocidib),log2 fold change (Tubastatin A),log2 fold change [8],log2 fold change (defactinib),log2 fold change (rucaparib),log2 fold change [9],log2 fold change (encorafenib),log2 fold change [10]
SHOC2 (UniProt Q9UQ13),inactive: 0.088,inactive: -0.02,inactive: 0.035,inactive: 0.004,inactive: -0.014,inactive: -0.107,inactive: 0.045,inactive: 0.009,inactive: 0.003,inactive: -0.038,inactive: -0.03,inactive: 0.083,inactive: -0.102,inactive: 0.034,inactive: 0.003,inactive: -0.039,inactive: 0.05,inactive: 0.092,inactive: -0.035,inactive: -0.049
SIPA1 (UniProt Q96FS4),inactive: -0.014,inactive: -0.081,inactive: -0.078,inactive: -0.018,inactive: -0.125,inactive: -0.086,inactive: 0.045,inactive: 0.017,inactive: -0.002,inactive: -0.02,inactive: -0.005,inactive: -0.029,inactive: -0.046,inactive: 0,inactive: -0.031,inactive: 0.008,inactive: 0.026,inactive: 0.045,inactive: -0.01,inactive: 0.002

Reference: the supplement of paper PMC10849652
